Measurements: the supplement of paper PMC10849652
This is one part of the list.

Protein sequences, listed by entry. Tags and fused reporters are not part of them. Lines headed by an entry give the natural chain unless they say otherwise; changes in a name come on top.
UniProt P28331, whole entry, looked up: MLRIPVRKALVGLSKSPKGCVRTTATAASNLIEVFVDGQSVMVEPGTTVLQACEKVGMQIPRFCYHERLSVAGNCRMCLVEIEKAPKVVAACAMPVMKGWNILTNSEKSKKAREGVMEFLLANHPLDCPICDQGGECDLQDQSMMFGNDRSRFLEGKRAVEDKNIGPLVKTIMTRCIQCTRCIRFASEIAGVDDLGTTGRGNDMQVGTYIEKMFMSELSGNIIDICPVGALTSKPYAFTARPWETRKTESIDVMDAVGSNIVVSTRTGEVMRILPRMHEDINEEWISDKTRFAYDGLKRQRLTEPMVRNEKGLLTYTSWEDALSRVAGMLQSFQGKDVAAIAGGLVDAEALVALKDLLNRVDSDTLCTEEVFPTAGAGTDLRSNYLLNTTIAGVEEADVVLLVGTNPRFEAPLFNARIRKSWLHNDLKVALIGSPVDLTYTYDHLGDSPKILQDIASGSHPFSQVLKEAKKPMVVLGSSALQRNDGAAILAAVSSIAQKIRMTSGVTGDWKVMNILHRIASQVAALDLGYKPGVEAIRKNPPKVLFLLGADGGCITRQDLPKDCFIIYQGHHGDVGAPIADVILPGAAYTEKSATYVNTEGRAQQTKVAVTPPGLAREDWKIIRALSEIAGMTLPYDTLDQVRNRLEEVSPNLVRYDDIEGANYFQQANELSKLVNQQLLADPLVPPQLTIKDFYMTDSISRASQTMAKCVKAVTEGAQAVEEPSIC
UniProt Q96PU5: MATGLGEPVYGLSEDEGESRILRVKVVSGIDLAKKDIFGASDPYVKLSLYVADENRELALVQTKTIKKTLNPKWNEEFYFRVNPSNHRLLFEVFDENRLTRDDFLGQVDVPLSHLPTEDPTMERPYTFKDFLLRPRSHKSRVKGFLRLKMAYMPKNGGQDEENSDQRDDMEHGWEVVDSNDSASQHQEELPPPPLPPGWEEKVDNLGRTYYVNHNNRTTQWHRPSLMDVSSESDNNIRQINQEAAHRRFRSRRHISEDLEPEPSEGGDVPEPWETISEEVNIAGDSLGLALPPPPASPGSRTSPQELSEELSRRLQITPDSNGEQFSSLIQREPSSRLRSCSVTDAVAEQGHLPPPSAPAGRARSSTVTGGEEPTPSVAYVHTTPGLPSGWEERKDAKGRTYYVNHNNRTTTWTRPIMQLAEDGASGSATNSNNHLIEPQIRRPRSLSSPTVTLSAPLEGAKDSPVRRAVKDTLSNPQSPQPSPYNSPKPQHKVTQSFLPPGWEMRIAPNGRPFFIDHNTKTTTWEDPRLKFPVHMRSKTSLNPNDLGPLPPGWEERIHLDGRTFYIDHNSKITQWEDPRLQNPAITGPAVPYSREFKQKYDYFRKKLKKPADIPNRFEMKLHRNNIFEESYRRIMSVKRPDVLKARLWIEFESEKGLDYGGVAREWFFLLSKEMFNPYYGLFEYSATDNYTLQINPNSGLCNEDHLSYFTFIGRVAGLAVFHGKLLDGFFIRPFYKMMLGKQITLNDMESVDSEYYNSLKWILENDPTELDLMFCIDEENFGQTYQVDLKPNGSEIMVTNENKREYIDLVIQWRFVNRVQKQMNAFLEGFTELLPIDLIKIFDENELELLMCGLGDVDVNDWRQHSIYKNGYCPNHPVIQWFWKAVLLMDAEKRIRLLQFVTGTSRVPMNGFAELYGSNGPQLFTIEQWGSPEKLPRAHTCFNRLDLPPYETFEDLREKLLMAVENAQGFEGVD
UniProt O75489, whole entry, looked up: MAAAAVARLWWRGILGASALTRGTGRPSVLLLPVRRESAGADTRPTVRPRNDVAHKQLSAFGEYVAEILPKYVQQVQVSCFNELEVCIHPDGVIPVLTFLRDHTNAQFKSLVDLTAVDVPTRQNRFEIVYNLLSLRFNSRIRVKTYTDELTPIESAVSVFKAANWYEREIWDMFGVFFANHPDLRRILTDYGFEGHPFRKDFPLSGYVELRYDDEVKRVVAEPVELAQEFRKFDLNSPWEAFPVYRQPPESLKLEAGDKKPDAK
UniProt Q6NW34: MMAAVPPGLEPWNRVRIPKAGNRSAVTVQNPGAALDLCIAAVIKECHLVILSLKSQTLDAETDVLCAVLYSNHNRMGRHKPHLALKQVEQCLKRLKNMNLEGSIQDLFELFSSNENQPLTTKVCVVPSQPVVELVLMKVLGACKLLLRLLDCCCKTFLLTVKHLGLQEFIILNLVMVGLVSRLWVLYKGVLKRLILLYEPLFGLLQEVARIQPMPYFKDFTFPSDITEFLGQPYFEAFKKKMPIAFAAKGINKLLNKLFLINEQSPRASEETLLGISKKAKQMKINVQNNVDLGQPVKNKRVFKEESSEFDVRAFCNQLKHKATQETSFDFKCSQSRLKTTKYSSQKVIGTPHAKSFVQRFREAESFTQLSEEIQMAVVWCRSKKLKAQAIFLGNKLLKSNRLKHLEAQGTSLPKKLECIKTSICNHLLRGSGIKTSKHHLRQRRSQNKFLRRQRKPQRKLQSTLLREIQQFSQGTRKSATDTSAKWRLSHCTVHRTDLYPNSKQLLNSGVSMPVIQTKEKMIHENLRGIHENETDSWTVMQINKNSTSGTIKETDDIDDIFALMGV
UniProt Q9BZQ8: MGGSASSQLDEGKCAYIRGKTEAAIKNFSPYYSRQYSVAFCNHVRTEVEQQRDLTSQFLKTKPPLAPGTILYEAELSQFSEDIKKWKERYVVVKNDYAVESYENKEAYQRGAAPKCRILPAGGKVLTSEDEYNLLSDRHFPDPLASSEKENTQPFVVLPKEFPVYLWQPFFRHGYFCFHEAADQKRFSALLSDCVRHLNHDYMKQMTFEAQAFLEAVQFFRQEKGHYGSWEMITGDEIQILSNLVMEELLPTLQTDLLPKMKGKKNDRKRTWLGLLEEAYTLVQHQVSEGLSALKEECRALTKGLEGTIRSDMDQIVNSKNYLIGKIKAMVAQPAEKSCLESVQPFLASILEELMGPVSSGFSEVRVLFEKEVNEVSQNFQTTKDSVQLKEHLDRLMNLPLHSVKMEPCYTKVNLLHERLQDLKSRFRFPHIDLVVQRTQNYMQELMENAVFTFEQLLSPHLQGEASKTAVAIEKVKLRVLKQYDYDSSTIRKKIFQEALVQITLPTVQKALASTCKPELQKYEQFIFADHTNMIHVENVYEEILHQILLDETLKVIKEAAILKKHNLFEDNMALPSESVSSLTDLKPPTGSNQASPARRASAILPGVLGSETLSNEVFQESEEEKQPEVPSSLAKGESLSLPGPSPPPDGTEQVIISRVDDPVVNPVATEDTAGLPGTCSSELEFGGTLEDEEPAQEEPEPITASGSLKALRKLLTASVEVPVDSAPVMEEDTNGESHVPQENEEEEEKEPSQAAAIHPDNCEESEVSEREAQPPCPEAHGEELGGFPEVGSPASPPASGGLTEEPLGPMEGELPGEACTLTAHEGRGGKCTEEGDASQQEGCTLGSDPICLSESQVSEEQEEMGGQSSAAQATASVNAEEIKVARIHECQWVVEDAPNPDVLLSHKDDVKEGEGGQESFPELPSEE
UniProt Q9Y375: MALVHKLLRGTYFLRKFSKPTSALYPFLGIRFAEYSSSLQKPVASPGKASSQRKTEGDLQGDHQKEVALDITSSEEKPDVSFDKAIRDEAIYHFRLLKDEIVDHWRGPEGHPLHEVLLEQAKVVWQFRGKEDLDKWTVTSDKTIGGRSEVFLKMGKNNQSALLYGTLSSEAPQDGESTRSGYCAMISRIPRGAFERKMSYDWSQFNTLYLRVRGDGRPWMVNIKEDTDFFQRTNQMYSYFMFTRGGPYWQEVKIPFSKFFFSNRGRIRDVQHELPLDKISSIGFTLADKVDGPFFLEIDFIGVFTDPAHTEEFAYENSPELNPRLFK
UniProt O43678, whole entry, looked up: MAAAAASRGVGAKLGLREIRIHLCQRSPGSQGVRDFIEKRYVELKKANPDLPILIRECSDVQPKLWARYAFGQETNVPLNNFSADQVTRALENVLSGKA
UniProt Q9BPW8: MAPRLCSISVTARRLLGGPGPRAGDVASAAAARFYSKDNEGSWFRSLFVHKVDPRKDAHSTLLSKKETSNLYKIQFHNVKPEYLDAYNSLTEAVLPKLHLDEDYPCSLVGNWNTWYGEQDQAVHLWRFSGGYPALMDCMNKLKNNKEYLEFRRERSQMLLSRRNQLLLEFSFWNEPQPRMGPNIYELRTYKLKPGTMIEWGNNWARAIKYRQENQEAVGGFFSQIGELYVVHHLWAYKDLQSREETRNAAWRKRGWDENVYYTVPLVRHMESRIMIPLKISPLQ
UniProt Q8NC96: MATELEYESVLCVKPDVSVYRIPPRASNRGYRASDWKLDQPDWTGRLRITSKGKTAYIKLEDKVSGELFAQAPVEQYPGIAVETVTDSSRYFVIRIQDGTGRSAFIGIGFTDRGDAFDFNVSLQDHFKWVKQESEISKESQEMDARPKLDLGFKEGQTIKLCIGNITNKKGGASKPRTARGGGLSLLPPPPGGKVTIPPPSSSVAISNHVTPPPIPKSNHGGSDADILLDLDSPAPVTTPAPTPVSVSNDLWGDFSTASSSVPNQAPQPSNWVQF
UniProt Q9NX02: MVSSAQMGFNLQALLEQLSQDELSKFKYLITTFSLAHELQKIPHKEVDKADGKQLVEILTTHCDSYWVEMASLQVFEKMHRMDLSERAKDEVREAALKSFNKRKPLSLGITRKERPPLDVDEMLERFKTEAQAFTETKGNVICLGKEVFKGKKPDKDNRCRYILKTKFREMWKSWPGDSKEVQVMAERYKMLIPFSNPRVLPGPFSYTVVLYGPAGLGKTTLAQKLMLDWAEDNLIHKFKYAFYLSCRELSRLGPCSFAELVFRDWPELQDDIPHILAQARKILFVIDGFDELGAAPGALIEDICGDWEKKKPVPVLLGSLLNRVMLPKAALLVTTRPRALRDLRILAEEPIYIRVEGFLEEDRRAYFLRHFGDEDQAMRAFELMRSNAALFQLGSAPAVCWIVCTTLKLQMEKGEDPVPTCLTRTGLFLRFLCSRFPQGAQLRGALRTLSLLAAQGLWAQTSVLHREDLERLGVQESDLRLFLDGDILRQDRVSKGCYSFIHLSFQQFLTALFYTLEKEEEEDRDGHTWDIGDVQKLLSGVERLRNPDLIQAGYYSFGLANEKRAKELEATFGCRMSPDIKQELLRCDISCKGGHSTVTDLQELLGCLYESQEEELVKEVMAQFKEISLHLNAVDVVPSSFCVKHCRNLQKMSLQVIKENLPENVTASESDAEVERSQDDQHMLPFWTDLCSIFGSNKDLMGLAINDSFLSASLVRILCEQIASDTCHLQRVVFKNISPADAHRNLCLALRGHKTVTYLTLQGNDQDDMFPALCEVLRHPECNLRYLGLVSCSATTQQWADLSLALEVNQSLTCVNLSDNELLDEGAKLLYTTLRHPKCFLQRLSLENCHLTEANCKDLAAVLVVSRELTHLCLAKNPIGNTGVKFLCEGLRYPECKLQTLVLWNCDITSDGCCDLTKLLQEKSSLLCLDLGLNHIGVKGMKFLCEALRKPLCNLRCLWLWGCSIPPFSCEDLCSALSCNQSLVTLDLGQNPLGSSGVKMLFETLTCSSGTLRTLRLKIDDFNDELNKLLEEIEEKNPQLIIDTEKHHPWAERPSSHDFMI
UniProt Q16795, whole entry, looked up: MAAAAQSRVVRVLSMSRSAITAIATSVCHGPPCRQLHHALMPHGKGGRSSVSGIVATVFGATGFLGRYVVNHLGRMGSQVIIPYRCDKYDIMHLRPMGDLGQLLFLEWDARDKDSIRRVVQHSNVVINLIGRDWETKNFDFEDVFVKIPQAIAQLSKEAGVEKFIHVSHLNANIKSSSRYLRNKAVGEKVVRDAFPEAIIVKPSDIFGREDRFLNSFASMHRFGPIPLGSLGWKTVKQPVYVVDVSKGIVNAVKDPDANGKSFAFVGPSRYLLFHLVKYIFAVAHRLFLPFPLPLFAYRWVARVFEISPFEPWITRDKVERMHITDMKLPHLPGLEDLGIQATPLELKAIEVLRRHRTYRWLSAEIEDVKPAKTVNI
UniProt P08651, whole entry, looked up: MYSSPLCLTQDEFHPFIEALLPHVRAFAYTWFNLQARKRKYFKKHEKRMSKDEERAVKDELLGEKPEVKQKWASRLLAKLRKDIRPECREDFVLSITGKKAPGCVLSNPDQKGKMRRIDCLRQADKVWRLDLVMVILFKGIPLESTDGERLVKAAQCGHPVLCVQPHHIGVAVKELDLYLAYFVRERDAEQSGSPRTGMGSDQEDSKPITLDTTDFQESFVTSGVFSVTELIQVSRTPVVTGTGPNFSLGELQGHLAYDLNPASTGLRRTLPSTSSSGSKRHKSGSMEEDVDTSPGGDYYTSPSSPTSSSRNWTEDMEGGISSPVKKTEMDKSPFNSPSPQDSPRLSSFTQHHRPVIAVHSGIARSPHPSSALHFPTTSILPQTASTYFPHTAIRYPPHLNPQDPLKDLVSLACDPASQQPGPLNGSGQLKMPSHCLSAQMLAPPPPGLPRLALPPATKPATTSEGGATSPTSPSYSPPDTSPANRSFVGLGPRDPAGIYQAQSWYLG
UniProt Q8N183: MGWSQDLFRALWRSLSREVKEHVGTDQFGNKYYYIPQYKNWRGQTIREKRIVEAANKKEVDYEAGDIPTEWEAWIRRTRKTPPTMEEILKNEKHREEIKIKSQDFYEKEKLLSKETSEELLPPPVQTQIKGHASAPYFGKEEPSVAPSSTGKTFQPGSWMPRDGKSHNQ

Tests used:
Assay in all cases: log2 fold change, soluble protein after heating vs DMSO (PISA); higher = thermal stabilisation; K562 lysate, 10 uM; active = over 0.2 and 3.5 SD of the protein, either way, in both replicates (recomputed)
lapatinib = compound: CS(=O)(=O)CCNCc1ccc(-c2ccc3ncnc(Nc4ccc(OCc5cccc(F)c5)c(Cl)c4)c3c2)o1 [lapatinib]
Procedure, shortened: (§1)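 K562 pellets were dounce-homogenised in PBS pH 7.4 containing 1 mM MgCl2, and the crude extract, at 1 mg/mL protein, was exposed to 10 μM compound for 30 min. Aliquots were heated for 3 min across 48°C-58°C, pooled, brought to 0.5% NP-40 at 4°C and spun at 21,000xg for 90 min, with the supernatant taken as soluble protein. TMTpro 16plex LC-MS/MS with equalised channel sums quantified that protein. Values are log-two fold changes in thermal stability relative to solvent controls, taken from duplicates.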

pictilisib = compound: CS(=O)(=O)N1CCN(Cc2cc3nc(-c4cccc5[nH]ncc45)nc(N4CCOCC4)c3s2)CC1 [pictilisib]
Procedure, shortened: as §1

crizotinib = compound: C[C@@H](Oc1cc(-c2cnn(C3CCNCC3)c2)cnc1N)c1c(Cl)ccc(F)c1Cl [crizotinib]
Procedure, shortened: as §1

[1] = compound: C[C@H](C1=CC=C(C=C1)C(=O)NC2=C3C=CNC3=NC=C2)N
Procedure, shortened: as §1

duvelisib = compound: C[C@H](Nc1ncnc2nc[nH]c12)c1cc2cccc(Cl)c2c(=O)n1-c1ccccc1 [duvelisib]
Procedure, shortened: as §1

gandotinib = compound: Cc1cc(Nc2cc(CN3CCOCC3)c3nc(C)c(Cc4ccc(Cl)cc4F)n3n2)n[nH]1 [gandotinib]
Procedure, shortened: as §1

tozasertib = compound: Cc1cc(Nc2cc(N3CCN(C)CC3)nc(Sc3ccc(NC(=O)C4CC4)cc3)n2)n[nH]1 [tozasertib]
Procedure, shortened: as §1

doramapimod = compound: Cc1ccc(-n2nc(C(C)(C)C)cc2NC(=O)Nc2ccc(OCCN3CCOCC3)c3ccccc23)cc1 [doramapimod]
Procedure, shortened: as §1

bafetinib = compound: Cc1ccc(NC(=O)c2ccc(CN3CC[C@H](N(C)C)C3)c(C(F)(F)F)c2)cc1Nc1nccc(-c2cncnc2)n1 [bafetinib]
Procedure, shortened: as §1

[2] = compound: Cc1cccc(CC(=O)N2CCc3c2ccc(-c2cn(C)c4ncnc(N)c24)c3F)n1
Procedure, shortened: as §1

Measured: log2 fold change

NDUFS1 isoform 2 (UniProt P28331)
inactive: lapatinib 0.023 | pictilisib -0.014 | crizotinib 0.034 | [1] 0.009 | duvelisib -0.01 | gandotinib -0.006 | tozasertib 0.03 | doramapimod 0.024 | bafetinib -0.013 | [2] -0.006

NELFB isoform 2 (UniProt Q8WX92)
inactive: lapatinib 0.015 | pictilisib 0.028 | crizotinib -0.015 | [1] 0.012 | duvelisib -0.026 | gandotinib -0.079 | tozasertib -0.01 | doramapimod 0.001 | bafetinib -0.005 | [2] 0.023

NDUFA8 (UniProt P51970)
inactive: lapatinib -0.029 | pictilisib -0.017 | crizotinib 0.011 | [1] 0.129 | duvelisib 0.041 | gandotinib -0.053 | tozasertib 0.097 | doramapimod 0.01 | bafetinib 0.059 | [2] -0.09

NEDD4L (UniProt Q96PU5)
inactive: lapatinib -0.026 | pictilisib -0.026 | crizotinib -0.026 | [1] -0.024 | duvelisib -0.04 | gandotinib -0.056 | tozasertib -0.001 | doramapimod 0.097 | bafetinib 0.005 | [2] 0.024

NDUFS3 (UniProt O75489)
inactive: lapatinib -0.017 | pictilisib -0.009 | crizotinib 0.01 | [1] 0.008 | duvelisib -0.03 | gandotinib -0.056 | tozasertib -0.005 | doramapimod -0.063 | bafetinib -0.01 | [2] 0.007

NEPRO (UniProt Q6NW34)
inactive: lapatinib 0.035 | pictilisib -0.089 | crizotinib -0.089 | [1] -0.289 | duvelisib 0.125 | gandotinib 0.166 | tozasertib 0.018 | doramapimod 0.153 | bafetinib -0.131 | [2] -0.019

NEK9 (UniProt Q8TD19)
inactive: lapatinib -0.013 | pictilisib 0.039 | crizotinib 0.057 | [1] -0.092 | duvelisib 0.006 | gandotinib 0.108 | tozasertib 0.025 | doramapimod -0.033 | bafetinib 0.014 | [2] 0.019

NIBAN1 (UniProt Q9BZQ8)
inactive: lapatinib -0.01 | pictilisib -0.035 | crizotinib -0.049 | [1] 0.051 | duvelisib 0.002 | gandotinib -0.101 | tozasertib 0.029 | doramapimod -0.025 | bafetinib -0.004 | [2] 0.014

NDUFA10 (UniProt O95299)
inactive: lapatinib -0.098 | pictilisib -0.001 | crizotinib -0.044 | [1] -0.065 | duvelisib 0.02 | gandotinib -0.103 | tozasertib 0.04 | doramapimod -0.037 | bafetinib 0.065 | [2] 0.116

NEK3 (UniProt P51956)
inactive: lapatinib -0.014 | pictilisib -0.048 | crizotinib -0.021 | [1] 0.012 | duvelisib 0.004 | gandotinib 0.113 | tozasertib 0.051 | doramapimod -0.014 | bafetinib 0.076 | [2] 0.002

NDUFAF3 (UniProt Q9BU61)
inactive: lapatinib -0.017 | pictilisib 0.042 | crizotinib -0.037 | [1] -0.034 | duvelisib -0.033 | gandotinib -0.083 | tozasertib 0.014 | doramapimod 0.037 | bafetinib -0.023 | [2] 0.094

NDUFAF1 (UniProt Q9Y375)
inactive: lapatinib -0.015 | pictilisib -0.008 | crizotinib -0.066 | [1] -0.071 | duvelisib -0.015 | gandotinib 0.049 | tozasertib -0.023 | doramapimod -0.11 | bafetinib 0.048 | [2] 0.035

NDUFA2 (UniProt O43678)
inactive: lapatinib 0.016 | pictilisib 0.012 | crizotinib 0.025 | [1] 0.048 | duvelisib -0.044 | gandotinib 0.015 | tozasertib 0.051 | doramapimod 0.006 | bafetinib -0.033 | [2] -0.046

NIPSNAP1 (UniProt Q9BPW8)
inactive: lapatinib 0.015 | pictilisib -0.024 | crizotinib -0.086 | [1] 0.001 | duvelisib -0.1 | gandotinib 0.008 | tozasertib 0.016 | doramapimod -0.083 | bafetinib -0.094 | [2] 0.003

NECAP1 (UniProt Q8NC96)
inactive: lapatinib -0.009 | pictilisib -0.056 | crizotinib -0.056 | [1] -0.108 | duvelisib -0.01 | gandotinib 0.139 | tozasertib 0.023 | doramapimod 0.014 | bafetinib -0.029 | [2] 0.068

NDUFS6 (UniProt O75380)
inactive: lapatinib 0.001 | pictilisib -0.022 | crizotinib 0.053 | [1] 0.002 | duvelisib -0.015 | gandotinib 0.019 | tozasertib 0.021 | doramapimod 0.023 | bafetinib 0.064 | [2] -0.032

NDUFAF4 (UniProt Q9P032)
inactive: lapatinib -0.029 | pictilisib -0.026 | crizotinib -0.054 | [1] -0.013 | duvelisib -0.005 | gandotinib -0.037 | tozasertib 0.041 | doramapimod 0.009 | bafetinib -0.058 | [2] 0.001

NLRP2 (UniProt Q9NX02)
inactive: lapatinib 0.004 | pictilisib -0.025 | crizotinib -0.029 | [1] 0.091 | duvelisib 0.005 | gandotinib -0.049 | tozasertib 0.005 | doramapimod 0.051 | bafetinib -0.023 | [2] -0.018

NDUFA4 (UniProt O00483)
active: gandotinib -0.294
inactive: lapatinib 0.124 | pictilisib 0.017 | crizotinib 0.02 | [1] 0.009 | duvelisib 0.059 | tozasertib -0.01 | doramapimod 0.02 | bafetinib 0 | [2] -0.026

NIBAN2 (UniProt Q96TA1)
inactive: lapatinib 0.005 | pictilisib 0.009 | crizotinib -0.044 | [1] 0.089 | duvelisib 0.023 | gandotinib -0.039 | tozasertib 0.008 | doramapimod 0.021 | bafetinib -0.023 | [2] -0.027

Reprinted from above (two entries):
NLRP2 (UniProt Q9NX02)
inactive: lapatinib 0.004 | pictilisib -0.025 | crizotinib -0.029 | [1] 0.091 | duvelisib 0.005 | gandotinib -0.049 | tozasertib 0.005 | doramapimod 0.051 | bafetinib -0.023 | [2] -0.018

NDUFA4 (UniProt O00483)
active: gandotinib -0.294
inactive: lapatinib 0.124 | pictilisib 0.017 | crizotinib 0.02 | [1] 0.009 | duvelisib 0.059 | tozasertib -0.01 | doramapimod 0.02 | bafetinib 0 | [2] -0.026

Later entries

NFU1 (UniProt Q9UMS0)
inactive: lapatinib 0.026 | pictilisib 0 | crizotinib 0.011 | [1] 0.077 | duvelisib -0.015 | gandotinib -0.044 | tozasertib -0.003 | doramapimod -0.053 | bafetinib -0.002 | [2] -0.076

NDUFA11 (UniProt Q86Y39)
inactive: lapatinib 0.029 | pictilisib -0.043 | crizotinib -0.009 | [1] -0.06 | duvelisib 0.02 | gandotinib 0.094 | tozasertib 0.013 | doramapimod -0.001 | bafetinib 0.055 | [2] 0.033

NDC80 (UniProt O14777)
inactive: lapatinib -0.04 | pictilisib 0.006 | crizotinib -0.028 | [1] 0.019 | duvelisib -0.006 | gandotinib -0.121 | tozasertib 0.003 | doramapimod -0.002 | bafetinib 0.042 | [2] 0.012

NIT2 (UniProt Q9NQR4)
inactive: lapatinib 0.002 | pictilisib -0.048 | crizotinib -0.026 | [1] -0.008 | duvelisib 0.011 | gandotinib -0.01 | tozasertib 0.002 | doramapimod -0.023 | bafetinib 0.011 | [2] -0.06

NDUFS4 (UniProt O43181)
inactive: lapatinib -0.012 | pictilisib -0.068 | crizotinib -0.013 | [1] -0.042 | duvelisib -0.014 | gandotinib 0.044 | tozasertib -0.025 | doramapimod 0.014 | bafetinib -0.021 | [2] 0.024

NF2 (UniProt P35240)
inactive: lapatinib -0.019 | pictilisib -0.021 | crizotinib -0.111 | [1] -0.09 | duvelisib -0.013 | gandotinib 0.069 | tozasertib -0.008 | doramapimod 0 | bafetinib -0.081 | [2] 0.05

NDUFA9 (UniProt Q16795)
inactive: lapatinib -0.049 | pictilisib 0.004 | crizotinib -0.016 | [1] 0.04 | duvelisib -0.06 | gandotinib -0.005 | tozasertib 0.074 | doramapimod -0.063 | bafetinib 0.041 | [2] 0.029

NEDD1 isoform 3 (UniProt Q8NHV4)
inactive: lapatinib -0.011 | pictilisib 0.002 | crizotinib 0.082 | [1] -0.027 | duvelisib 0.018 | gandotinib 0.011 | tozasertib 0.031 | doramapimod -0.013 | bafetinib -0.002 | [2] -0.022

NFIC (UniProt P08651)
inactive: lapatinib -0.004 | pictilisib 0.109 | crizotinib 0.007 | [1] -0.361 | duvelisib -0.002 | gandotinib 0.237 | tozasertib 0.035 | doramapimod 0.139 | bafetinib -0.038 | [2] 0.003

NDUFAF2 (UniProt Q8N183)
inactive: lapatinib -0.038 | pictilisib -0.039 | crizotinib 0.029 | [1] -0.161 | duvelisib -0.046 | gandotinib 0.117 | tozasertib 0.008 | doramapimod 0.029 | bafetinib -0.035 | [2] 0.106
